Reference: article PMC10803289, “Transport and inhibition mechanism of the human SGLT2–MAP17 glucose transporter” (Nature Structural & Molecular Biology, 2023)
Results are given in words; binding and its absence hold for the method and conditions named. Some entries that bind do so weakly or less than the wild type. Where a sequence is shown, tags or fusion partners need not be part of it.

Tests used:
[1] = target: T1, sfGFP-tagged human sodium–glucose cotransporter 2 (hSGLT2) (human) (UniProt P31639); experiment: SEC; fluorescence-detection SEC (FSEC) of detergent-solubilized Expi293 cells expressing sfGFP-tagged hSGLT2 with or without MAP17; ACQUITY UPLC BEH450 SEC column; GFP fluorescence monitored
T1 sequence: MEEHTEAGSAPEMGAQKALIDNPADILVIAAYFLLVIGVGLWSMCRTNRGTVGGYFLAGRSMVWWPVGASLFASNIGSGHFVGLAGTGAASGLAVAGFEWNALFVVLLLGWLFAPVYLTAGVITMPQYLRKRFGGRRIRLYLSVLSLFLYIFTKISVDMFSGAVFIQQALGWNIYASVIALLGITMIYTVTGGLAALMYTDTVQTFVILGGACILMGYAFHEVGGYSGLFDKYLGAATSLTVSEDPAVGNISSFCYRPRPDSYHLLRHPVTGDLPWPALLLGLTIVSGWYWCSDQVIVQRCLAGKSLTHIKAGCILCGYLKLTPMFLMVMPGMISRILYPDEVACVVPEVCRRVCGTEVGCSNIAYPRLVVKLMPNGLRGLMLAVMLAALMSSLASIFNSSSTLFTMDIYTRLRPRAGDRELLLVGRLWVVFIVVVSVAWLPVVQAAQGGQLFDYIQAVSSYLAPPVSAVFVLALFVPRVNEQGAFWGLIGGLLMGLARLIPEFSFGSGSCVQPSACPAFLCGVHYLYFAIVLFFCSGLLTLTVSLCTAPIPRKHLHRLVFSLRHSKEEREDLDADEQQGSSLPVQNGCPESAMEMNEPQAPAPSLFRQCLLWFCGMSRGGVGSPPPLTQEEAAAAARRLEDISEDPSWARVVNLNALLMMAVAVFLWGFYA

[2] = target: T2, human sodium–glucose cotransporter 2 (hSGLT2), His10–sfGFP tag cleaved (human) (UniProt P31639); experiment: cryo-EM structure; co-expressed hSGLT2–MAP17 complex purified in DDM micelles (20 mM HEPES–NaOH pH 7.5, 150 mM NaCl, 0.03% DDM) with 0.5 mM canagliflozin, dapagliflozin, TA-1887, sotagliflozin or phlorizin; single-particle analysis; outward-facing (four gliflozins) and inward-open (phlorizin) conformations; both purified
T2 sequence (chain, N-glycan attached to N250): T1 sequence

binding [1]: binds
binding [2]: binds
B1: human MAP17 (protein, UniProt Q13113 1-114)
chain: MSALSLLILGLLTAVPPASCQQGLGNLQPWMQGLIAVAVFLVLVAIAFAVNHFWCQEEPEPAHMILTVGNKADGVLVGTDGRYSSMAASFRSSEHENAYENVPEEEGKVRSTPM
